Measured values reported in paper PMC12533555.
Results are given in words; binding and its absence hold for the method and conditions named. In cells and extracts the contact can be indirect. Some results given as binding are weak or reduced against the parent protein; the word gives no strength.

Chains of the proteins cited; added tags and fusions are not shown.
UniProt Q61768: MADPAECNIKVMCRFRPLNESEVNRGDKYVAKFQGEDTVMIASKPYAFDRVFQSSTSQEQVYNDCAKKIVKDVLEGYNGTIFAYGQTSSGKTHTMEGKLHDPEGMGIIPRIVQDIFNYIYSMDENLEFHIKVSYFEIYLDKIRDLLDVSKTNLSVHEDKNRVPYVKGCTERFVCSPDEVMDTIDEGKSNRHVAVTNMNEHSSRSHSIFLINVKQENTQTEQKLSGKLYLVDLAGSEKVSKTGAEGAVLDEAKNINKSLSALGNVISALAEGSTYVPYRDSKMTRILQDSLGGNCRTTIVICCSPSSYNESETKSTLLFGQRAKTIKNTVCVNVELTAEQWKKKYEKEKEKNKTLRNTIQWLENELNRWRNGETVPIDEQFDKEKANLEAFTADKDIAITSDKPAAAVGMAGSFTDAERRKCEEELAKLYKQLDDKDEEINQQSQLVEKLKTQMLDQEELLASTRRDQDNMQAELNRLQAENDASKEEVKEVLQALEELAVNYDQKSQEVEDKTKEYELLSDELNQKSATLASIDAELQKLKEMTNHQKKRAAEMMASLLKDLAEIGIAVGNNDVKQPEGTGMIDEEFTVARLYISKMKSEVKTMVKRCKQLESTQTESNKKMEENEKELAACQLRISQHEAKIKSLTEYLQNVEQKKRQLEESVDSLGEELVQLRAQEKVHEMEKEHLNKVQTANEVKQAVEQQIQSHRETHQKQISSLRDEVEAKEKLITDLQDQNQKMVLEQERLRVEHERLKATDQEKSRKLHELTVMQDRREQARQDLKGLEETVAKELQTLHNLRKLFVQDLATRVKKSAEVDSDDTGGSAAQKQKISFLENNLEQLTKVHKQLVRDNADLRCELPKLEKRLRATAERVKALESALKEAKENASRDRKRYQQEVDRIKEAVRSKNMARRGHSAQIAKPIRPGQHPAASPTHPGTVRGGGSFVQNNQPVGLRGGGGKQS

Target: T1, GEF-H1 (ARHGEF2, also known as Lfc in mice) (mouse (endogenous in BMDCs)) (UniProt Q60875)
T1 sequence: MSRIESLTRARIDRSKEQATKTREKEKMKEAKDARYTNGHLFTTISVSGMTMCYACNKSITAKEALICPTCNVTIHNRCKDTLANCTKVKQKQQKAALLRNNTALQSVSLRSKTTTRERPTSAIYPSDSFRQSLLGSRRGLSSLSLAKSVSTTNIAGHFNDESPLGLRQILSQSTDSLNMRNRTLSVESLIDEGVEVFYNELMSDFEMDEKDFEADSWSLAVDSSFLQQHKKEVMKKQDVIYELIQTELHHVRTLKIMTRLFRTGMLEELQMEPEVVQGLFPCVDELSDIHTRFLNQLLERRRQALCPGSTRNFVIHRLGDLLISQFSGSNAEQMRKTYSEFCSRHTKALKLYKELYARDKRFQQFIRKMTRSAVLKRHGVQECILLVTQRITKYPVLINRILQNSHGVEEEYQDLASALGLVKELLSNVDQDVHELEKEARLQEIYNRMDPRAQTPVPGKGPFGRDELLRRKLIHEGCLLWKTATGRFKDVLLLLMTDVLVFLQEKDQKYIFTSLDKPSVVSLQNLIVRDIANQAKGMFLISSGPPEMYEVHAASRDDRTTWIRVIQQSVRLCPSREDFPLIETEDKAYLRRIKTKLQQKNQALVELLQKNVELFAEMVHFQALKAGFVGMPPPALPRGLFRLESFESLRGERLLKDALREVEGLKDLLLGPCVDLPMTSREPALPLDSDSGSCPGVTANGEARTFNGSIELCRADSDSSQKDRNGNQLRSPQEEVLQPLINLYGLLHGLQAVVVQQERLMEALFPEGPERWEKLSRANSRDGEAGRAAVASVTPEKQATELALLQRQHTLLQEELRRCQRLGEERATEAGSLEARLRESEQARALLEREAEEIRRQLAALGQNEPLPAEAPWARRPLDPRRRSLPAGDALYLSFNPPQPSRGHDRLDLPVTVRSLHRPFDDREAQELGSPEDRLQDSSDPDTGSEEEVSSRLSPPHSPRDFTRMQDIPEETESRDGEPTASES
Assay: co-IP; lysates of WT mouse BMDCs, untreated or treated with nocodazole or tubacin; IP with anti-GEF-H1, anti-Kif5b or isotype control, blots for GEF-H1 and Kif5b; lysis buffer 50 mM Hepes pH 7.4, 150 mM NaCl, 1 mM MgCl2, 1% Triton X-100, 10% glycerol

Q: “Kif5b (the heavy chain of kinesin-1) (from UniProt Q61768 1-963)” was tested. Which binding did it give?
A: binds
